Results on 36 targets are retold here after the supplement of paper PMC10849652.

Chains of the proteins cited; added tags and fusions are not shown. Lines headed by an entry give the natural chain unless they say otherwise; changes in a name come on top.
UniProt Q9UJY4: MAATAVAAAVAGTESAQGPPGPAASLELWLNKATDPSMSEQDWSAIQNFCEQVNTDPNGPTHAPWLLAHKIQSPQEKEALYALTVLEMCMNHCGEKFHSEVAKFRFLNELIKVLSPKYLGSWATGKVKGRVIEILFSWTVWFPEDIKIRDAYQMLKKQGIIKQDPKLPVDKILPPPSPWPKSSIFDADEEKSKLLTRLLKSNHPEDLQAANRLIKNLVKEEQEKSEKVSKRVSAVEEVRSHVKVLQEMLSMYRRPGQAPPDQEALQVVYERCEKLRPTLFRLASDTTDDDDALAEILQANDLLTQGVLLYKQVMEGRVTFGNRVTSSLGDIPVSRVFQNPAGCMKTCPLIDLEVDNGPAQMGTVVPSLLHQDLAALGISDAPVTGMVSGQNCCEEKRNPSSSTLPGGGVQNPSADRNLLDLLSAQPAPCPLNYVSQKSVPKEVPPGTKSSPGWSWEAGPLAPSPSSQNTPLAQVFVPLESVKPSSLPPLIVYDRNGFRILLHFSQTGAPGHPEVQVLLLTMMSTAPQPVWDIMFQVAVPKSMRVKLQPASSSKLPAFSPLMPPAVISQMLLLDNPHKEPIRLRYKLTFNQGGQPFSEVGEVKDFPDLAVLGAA
UniProt Q8IY81: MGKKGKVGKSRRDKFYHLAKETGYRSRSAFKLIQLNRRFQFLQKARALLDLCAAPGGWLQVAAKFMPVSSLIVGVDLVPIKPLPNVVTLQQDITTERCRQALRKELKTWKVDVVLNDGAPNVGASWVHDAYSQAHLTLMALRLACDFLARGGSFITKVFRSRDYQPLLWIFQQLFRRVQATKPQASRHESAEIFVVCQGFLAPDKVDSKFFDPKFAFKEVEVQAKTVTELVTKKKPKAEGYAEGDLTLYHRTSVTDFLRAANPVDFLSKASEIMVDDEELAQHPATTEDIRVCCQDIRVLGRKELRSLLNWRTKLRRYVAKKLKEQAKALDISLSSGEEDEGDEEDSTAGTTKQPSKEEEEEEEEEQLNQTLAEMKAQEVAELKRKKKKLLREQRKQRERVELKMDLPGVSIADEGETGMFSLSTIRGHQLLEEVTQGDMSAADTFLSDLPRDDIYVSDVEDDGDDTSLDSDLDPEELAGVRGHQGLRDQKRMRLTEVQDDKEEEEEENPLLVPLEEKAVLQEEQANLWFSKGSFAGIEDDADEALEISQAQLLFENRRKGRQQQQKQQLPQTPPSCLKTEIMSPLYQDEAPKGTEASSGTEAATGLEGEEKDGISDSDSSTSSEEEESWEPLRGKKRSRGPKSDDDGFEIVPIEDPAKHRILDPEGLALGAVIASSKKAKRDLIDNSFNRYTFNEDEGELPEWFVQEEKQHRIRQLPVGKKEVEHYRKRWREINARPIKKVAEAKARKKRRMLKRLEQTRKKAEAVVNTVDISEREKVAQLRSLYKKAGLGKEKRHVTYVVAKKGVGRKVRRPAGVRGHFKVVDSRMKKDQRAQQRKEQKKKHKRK
UniProt Q99988: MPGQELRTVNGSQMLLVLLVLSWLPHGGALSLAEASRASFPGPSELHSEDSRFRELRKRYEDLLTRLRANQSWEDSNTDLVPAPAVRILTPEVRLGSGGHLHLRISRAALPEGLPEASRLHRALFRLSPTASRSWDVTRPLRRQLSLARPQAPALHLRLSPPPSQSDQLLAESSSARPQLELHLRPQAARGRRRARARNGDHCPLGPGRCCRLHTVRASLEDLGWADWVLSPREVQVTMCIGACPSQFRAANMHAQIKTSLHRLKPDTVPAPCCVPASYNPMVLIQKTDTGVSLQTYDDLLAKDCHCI
UniProt Q96AE4: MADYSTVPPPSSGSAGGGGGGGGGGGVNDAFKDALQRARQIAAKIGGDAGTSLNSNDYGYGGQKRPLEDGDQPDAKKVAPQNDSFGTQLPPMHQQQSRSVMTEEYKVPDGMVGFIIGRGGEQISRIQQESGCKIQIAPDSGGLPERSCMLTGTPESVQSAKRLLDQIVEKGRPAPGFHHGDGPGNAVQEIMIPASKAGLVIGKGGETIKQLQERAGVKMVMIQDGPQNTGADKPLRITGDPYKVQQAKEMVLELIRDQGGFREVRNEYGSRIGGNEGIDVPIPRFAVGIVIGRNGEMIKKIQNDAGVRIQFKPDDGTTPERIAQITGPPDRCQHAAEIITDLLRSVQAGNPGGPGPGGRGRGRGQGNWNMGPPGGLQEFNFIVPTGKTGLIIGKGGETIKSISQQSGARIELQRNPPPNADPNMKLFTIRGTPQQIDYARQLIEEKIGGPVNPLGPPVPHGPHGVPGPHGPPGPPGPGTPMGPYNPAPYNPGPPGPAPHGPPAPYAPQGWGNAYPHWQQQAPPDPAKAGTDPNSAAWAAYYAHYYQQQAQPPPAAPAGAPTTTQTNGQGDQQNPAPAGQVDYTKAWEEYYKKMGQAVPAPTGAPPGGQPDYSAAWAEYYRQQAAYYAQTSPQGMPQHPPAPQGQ
UniProt P60520, whole entry, looked up: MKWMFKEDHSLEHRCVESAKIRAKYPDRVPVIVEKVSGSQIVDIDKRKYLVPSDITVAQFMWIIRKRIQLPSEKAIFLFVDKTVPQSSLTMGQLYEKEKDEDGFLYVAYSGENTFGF
UniProt Q9UET6: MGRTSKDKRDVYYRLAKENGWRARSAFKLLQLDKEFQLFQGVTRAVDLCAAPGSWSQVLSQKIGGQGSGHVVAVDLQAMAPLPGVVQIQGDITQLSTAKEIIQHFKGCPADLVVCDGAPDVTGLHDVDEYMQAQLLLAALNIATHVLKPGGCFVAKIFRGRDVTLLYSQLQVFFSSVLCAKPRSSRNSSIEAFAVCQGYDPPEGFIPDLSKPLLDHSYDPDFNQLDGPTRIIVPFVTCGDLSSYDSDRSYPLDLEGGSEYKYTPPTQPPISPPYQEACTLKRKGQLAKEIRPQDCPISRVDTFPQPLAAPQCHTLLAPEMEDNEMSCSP
UniProt Q9H334: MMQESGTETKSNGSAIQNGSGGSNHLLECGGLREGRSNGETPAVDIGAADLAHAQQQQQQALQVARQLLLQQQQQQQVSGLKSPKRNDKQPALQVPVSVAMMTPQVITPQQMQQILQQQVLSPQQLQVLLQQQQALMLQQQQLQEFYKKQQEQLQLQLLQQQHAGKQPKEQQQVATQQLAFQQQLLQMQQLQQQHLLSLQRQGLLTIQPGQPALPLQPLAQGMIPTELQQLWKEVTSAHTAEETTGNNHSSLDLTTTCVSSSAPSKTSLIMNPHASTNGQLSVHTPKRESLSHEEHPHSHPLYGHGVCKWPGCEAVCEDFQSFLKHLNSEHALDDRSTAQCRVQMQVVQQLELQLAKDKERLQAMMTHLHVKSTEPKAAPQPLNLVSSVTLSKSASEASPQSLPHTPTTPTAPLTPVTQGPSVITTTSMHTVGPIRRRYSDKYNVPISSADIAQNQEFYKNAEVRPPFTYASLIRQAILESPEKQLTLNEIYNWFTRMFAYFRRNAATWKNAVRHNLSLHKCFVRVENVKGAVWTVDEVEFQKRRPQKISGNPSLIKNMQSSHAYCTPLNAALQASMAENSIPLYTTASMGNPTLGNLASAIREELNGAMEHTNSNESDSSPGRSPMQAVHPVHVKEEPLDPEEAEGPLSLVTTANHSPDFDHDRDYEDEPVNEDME
UniProt P41250: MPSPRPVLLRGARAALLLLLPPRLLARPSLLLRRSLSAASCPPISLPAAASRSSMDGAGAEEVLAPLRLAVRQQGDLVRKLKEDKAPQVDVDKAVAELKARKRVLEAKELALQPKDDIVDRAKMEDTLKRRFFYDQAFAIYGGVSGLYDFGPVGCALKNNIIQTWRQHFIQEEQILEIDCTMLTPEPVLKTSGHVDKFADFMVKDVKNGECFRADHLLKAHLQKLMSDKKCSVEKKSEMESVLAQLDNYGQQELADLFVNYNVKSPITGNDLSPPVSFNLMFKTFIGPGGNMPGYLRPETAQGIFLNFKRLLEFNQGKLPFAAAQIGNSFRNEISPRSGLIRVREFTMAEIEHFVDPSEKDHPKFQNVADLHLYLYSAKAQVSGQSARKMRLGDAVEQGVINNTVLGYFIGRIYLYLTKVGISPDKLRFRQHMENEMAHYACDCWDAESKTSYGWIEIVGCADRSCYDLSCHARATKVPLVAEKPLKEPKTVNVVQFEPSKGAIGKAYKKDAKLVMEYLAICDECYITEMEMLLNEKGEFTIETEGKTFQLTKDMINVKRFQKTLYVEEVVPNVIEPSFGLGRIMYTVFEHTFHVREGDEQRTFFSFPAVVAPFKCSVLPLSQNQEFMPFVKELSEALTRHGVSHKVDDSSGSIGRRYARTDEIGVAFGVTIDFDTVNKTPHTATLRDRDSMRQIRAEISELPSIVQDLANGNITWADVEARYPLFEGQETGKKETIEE
UniProt Q9UPW0: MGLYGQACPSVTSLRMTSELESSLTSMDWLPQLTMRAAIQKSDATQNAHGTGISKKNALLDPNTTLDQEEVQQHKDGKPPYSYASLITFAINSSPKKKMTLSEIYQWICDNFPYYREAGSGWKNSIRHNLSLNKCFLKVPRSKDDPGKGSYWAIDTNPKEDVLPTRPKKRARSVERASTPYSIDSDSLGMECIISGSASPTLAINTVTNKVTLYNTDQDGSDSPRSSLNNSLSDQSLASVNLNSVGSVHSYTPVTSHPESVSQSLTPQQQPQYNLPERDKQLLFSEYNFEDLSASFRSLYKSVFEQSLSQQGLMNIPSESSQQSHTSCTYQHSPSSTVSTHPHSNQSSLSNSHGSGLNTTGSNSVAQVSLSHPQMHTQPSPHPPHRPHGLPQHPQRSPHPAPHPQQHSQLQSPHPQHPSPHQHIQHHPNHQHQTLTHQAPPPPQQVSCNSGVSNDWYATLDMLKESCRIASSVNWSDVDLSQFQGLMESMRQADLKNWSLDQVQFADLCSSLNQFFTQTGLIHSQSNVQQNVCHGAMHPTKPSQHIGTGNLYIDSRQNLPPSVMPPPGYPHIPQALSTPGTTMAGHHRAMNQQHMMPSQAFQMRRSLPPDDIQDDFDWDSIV
UniProt P0CL80: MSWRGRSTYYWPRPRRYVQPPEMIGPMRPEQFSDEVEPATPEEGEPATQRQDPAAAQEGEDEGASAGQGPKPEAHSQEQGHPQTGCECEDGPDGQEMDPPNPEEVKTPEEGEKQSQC
UniProt Q8N9F7: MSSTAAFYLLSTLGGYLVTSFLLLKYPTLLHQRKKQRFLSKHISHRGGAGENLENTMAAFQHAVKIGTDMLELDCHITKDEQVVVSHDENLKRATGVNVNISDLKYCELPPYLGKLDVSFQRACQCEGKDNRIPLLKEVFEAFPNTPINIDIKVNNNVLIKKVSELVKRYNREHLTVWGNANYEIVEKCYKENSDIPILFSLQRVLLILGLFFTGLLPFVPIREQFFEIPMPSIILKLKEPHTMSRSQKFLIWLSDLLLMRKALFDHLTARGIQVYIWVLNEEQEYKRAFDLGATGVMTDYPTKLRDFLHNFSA
UniProt P04406: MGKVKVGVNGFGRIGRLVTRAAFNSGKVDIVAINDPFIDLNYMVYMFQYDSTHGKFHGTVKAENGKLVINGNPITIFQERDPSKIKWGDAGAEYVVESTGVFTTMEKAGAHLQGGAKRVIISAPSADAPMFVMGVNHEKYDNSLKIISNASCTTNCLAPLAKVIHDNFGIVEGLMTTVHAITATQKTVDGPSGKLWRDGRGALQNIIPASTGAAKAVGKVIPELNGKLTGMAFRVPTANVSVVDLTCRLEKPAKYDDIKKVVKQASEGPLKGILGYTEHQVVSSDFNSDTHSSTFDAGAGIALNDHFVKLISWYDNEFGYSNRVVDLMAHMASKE
UniProt Q7L5D6: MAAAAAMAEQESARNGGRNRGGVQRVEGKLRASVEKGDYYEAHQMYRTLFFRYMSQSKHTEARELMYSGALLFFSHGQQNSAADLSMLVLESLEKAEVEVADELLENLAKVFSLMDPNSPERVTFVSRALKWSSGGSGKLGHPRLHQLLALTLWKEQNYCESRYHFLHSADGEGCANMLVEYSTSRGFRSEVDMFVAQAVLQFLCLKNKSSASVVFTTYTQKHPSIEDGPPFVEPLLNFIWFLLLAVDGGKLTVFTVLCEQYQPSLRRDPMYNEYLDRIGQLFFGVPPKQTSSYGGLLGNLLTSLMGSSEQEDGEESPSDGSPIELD
UniProt Q8NCW6: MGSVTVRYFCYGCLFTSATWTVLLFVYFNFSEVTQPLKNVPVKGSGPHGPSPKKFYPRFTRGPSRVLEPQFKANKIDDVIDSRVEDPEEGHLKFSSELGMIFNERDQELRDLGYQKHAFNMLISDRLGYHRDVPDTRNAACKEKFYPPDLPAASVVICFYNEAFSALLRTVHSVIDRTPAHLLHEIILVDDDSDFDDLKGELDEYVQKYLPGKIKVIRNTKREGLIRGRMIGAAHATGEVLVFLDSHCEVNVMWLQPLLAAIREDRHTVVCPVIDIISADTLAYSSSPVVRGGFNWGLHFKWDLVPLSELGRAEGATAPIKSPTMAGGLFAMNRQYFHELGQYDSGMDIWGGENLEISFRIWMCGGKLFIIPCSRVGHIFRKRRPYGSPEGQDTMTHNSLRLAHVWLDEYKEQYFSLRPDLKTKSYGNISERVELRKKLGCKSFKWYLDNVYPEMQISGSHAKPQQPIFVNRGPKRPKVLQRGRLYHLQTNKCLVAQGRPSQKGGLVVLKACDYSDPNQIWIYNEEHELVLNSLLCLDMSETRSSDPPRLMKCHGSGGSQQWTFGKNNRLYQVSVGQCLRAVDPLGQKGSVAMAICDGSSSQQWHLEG

This is one part of the list.

Compound in this assay: O=C(O)c1ccc2c(c1)nc(Nc1cccc(Cl)c1)c1ccncc12 [silmitasertib]
The assay is described as follows: log2 fold change, soluble protein after heating vs DMSO (PISA); higher = thermal stabilisation; K562 lysate, 10 uM; active = over 0.2 and 3.5 SD of the protein, either way, in both replicates (recomputed). Put shortly:
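Soluble protein was defined as the supernatant remaining after 21,000xg for 90 min, following pooling of heated aliquots and adjustment to 0.5% NP-40 at 4°C. Before that, crude K562 extract at 1 mg/mL protein in PBS pH 7.4 with 1 mM MgCl2 was treated with 10 μM compound for 30 min and heated for 3 min across 48°C-58°C. Quantification used TMTpro 16plex LC-MS/MS with channel sums equalised, and values are log-two fold changes in thermal stability relative to solvent controls from duplicates.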
Take FRMPD3 (UniProt Q5JV73): the log2 fold change was inactive: 0. Take GGA2 (UniProt Q9UJY4): the log2 fold change is inactive: 0.016. For FRA10AC1 (UniProt Q70Z53) the value was inactive: 0.019.

As to GDI1 (UniProt P31150), the log2 fold change was inactive: 0.001. Regarding GDPGP1 (UniProt Q6ZNW5), the log2 fold change was inactive: -0.047. Under GDI2 (UniProt Q5SX86) stands inactive: 0.066; under GCFC2 (UniProt P16383), inactive: 0.007. Under GALNT1 (UniProt Q10472) stands inactive: -0.014; under FTSJ3 (UniProt Q8IY81), inactive: 0.017; under GDF15 (UniProt Q99988), inactive: 0.065.

As to FXR1 (UniProt P51114), the log2 fold change was inactive: 0.045.

On to FUBP1 isoform 2 (UniProt Q96AE4), for which the log2 fold change is inactive: 0.005.

As for GAN (UniProt Q9H2C0), the log2 fold change was inactive: 0. Under GABARAPL2 (UniProt P60520) stands inactive: 0.014; under GABPA (UniProt Q06546), inactive: 0.006. Regarding FTSJ1 (UniProt Q9UET6), the log2 fold change is inactive: 0.024. In the case of GALNT12 (UniProt Q8IXK2), the log2 fold change was inactive: 0.

For the target GAGE5 (UniProt Q13069), the log2 fold change is inactive: -0.012. Under FOXP1 (UniProt Q9H334) stands inactive: -0.016; under FUCA2 (UniProt Q9BTY2), inactive: -0.015. In the case of GARS1 (UniProt P41250), the log2 fold change is inactive: 0.

In the case of GEMIN4 (UniProt P57678), the log2 fold change was inactive: 0.1. For the target GAK (UniProt O14976), the log2 fold change is inactive: 0.405. Take FOXJ3 (UniProt Q9UPW0): the log2 fold change is inactive: 0.114.

For the target GAGE12F (UniProt P0CL80), the log2 fold change is inactive: -0.06. In the case of GCDH (UniProt Q92947), the log2 fold change was inactive: 0.161. Turning to GADD45GIP1 (UniProt Q8TAE8), the log2 fold change was inactive: 0.051. As to GAB2 (UniProt Q9UQC2), the log2 fold change is inactive: -0.035. For FOXRED2 (UniProt Q8IWF2), the log2 fold change is inactive: 0.013. For GDPD1 (UniProt Q8N9F7) the value was inactive: 0.033. For GAPDH (UniProt P04406) the value was inactive: -0.033; for GART (UniProt P22102), inactive: 0.006. Regarding GALNT2 (UniProt Q10471), the log2 fold change is inactive: 0.008. Under GET4 (UniProt Q7L5D6) stands inactive: -0.001; under GALNT11 (UniProt Q8NCW6), inactive: 0.05; under G3BP2 (UniProt Q9UN86), inactive: -0.006.
